Binding data for 6 substances are collected here from publication PMC6177257.

Chains of the proteins cited; added tags and fusions are not shown.
UniProt P29555: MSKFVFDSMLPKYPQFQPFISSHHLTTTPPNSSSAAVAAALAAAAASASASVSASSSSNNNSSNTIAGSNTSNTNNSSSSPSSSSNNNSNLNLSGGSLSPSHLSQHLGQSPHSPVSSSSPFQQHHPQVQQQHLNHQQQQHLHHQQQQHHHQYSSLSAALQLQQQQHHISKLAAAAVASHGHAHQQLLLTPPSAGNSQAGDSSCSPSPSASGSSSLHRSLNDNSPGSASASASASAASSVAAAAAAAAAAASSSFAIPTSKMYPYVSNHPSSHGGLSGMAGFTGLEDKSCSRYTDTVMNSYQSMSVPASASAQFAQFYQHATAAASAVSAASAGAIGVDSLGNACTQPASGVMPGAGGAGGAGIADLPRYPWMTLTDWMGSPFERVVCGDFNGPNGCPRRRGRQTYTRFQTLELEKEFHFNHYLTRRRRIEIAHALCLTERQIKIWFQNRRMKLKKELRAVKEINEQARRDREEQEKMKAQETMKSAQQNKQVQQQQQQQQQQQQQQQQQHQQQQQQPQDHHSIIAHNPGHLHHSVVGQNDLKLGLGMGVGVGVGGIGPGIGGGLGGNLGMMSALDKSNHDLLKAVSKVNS
UniProt P23757: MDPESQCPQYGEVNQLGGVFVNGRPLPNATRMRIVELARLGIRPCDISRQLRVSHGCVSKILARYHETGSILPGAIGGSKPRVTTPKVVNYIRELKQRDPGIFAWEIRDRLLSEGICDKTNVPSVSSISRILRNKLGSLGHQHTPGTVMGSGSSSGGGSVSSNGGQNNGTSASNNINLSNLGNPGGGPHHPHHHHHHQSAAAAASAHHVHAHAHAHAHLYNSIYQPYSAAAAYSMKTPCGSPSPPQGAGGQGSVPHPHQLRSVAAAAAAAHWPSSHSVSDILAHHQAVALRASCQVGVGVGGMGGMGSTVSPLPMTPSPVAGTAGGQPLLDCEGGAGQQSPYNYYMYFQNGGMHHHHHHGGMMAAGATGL
UniProt P20009: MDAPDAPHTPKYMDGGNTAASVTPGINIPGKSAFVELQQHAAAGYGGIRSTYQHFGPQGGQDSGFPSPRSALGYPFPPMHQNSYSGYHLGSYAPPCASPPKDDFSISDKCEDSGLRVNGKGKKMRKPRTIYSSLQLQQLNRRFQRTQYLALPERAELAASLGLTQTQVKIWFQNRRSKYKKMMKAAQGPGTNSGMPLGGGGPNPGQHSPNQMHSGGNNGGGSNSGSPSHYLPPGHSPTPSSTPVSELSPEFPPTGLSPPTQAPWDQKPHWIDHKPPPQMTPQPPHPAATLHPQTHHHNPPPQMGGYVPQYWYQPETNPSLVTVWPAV
UniProt O46036: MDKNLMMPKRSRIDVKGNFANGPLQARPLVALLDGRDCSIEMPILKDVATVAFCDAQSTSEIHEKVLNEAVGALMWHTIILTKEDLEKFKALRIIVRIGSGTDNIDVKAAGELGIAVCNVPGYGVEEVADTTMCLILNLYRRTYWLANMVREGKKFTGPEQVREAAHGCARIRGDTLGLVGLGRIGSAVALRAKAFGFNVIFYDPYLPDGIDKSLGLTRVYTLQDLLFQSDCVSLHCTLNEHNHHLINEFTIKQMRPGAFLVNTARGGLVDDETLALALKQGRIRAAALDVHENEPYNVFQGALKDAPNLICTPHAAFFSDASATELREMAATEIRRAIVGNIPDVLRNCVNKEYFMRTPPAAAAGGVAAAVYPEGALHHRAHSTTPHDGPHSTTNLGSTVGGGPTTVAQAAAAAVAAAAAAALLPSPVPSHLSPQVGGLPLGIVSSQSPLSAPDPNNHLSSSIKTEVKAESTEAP

Assay [1] addresses VN-AbdA (AbdominalA fused to the N-terminal fragment of Venus) (Drosophila (D. melanogaster)) (UniProt P29555). As to the kind of experiment: split reporter; BiFC competition in live Drosophila embryos: VN-AbdA and ORF-CC with co-expression of the corresponding non-complementing ORF-3xHA; abdA-Gal4 driver, epidermis of stage 10/11 embryos; identical parameters of confocal acquisition.

The target in assay [2] is CN-AbdA (AbdominalA fused to the N-terminal fragment of Cerulean) (Drosophila (D. melanogaster)) (UniProt P29555). The assay can be described thus: split reporter; bicolour BiFC in live Drosophila embryos: ORF-CC co-expressed with CN-AbdA, VN-Exd and a mCherry reporter; abdA-Gal4 driver, stage 10 embryos.
Assay [3] has as its target T1, VN-Exd (Extradenticle fused to the N-terminal fragment of Venus) (Drosophila (D. melanogaster)) (UniProt P40427).
T1 sequence: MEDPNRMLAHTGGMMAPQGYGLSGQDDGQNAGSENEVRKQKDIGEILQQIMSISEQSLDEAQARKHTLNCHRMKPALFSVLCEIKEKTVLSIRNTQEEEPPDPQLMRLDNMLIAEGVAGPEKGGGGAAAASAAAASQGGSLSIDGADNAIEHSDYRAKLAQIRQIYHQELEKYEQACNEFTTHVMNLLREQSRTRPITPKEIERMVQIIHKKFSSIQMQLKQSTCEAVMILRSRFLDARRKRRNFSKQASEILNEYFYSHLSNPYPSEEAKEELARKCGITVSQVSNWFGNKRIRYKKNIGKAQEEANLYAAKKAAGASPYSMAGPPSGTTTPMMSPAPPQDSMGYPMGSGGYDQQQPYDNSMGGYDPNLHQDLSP
The assay is described as above.

The target of assay [4] is VN-AbdA (AbdominalA fused to the N-terminal fragment of Venus) (Drosophila (D. melanogaster)) (UniProt P29555). As to the kind of experiment: split reporter; Venus- or Cerulean-based BiFC in live Drosophila embryos; ORF-CC with VN-AbdA or CN-AbdA; abdA-Gal4 driver (epidermis, stage 10/11) or 24B-Gal4 driver (somatic mesoderm, stage 14); confocal observation.
The target in assay [5] is CN-AbdA (AbdominalA fused to the N-terminal fragment of Cerulean) (Drosophila (D. melanogaster)) (UniProt P29555). Described as above.
The target of assay [6] is T2, VC-Exd (Extradenticle fused to the C-terminal fragment of Venus) (Drosophila (D. melanogaster)) (UniProt P40427).
T2 sequence: T1 sequence
The assay can be described thus: split reporter; Venus-based BiFC in live Drosophila embryos; TFs fused to VN with VC-Exd; abdA-Gal4 driver, epidermis of stage 10 embryos.

These are yes or no findings as the source states them, for the method shown. In cells and extracts the contact can be indirect. Some binding calls cover weakened binding; strength is not graded here. For some of these results: Tags and fused reporters may be left off the sequences shown.

For the substance “Pox mesoderm ORF-3xHA (Poxm-HA) (from UniProt P23757 1-370)”, the binding entry in assay [1] is listed as “binds”.
“Distalless ORF-CC (Dll-CC) (from UniProt P20009 1-327)”: the binding result in assay [2] and in assay [3] was “binds” each time.
Regarding “CtBP ORF-CC (CtBP-CC) (from UniProt O46036 1-476)”, the binding entry in assay [2] and in assay [3] was “binds” in each case.
Turning to “Pox mesoderm ORF-CC (Poxm-CC) (from UniProt P23757 1-370)”, the binding entry in assay [4], in assay [5] and in assay [1] was “binds” in each case.
As for “CtBP fused to VN (from UniProt O46036 1-476)”, in assay [6], the binding entry is listed as “binds”.
With “Distalless fused to VN (from UniProt P20009 1-327)”, the binding result in assay [6] was “binds”.
